# Data reported in the supplement of paper PMC6411743.
# Sequences of proteins named here, by UniProt entry; tags and fusion partners are left off. A change or cut given only in a name is not applied to a line headed by its entry.
# UniProt Q9NUQ2: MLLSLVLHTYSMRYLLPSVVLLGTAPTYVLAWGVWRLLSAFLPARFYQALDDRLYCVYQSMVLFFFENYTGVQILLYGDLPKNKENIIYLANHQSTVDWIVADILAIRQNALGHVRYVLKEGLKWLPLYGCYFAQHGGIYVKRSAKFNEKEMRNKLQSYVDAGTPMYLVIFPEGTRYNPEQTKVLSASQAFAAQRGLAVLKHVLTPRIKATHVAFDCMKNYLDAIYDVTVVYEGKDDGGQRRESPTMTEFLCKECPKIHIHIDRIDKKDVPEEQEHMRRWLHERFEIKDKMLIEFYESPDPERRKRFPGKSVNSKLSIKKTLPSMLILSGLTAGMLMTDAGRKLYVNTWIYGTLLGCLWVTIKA
# UniProt Q9NX07: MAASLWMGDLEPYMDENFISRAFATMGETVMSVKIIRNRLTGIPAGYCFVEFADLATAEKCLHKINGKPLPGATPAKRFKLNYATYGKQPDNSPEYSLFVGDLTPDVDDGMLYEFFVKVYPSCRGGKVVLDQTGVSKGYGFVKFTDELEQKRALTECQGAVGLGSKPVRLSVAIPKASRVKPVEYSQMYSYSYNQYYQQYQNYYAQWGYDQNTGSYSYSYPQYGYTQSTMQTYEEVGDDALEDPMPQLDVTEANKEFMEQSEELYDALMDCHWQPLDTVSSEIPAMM
# UniProt Q9UBB5, whole entry: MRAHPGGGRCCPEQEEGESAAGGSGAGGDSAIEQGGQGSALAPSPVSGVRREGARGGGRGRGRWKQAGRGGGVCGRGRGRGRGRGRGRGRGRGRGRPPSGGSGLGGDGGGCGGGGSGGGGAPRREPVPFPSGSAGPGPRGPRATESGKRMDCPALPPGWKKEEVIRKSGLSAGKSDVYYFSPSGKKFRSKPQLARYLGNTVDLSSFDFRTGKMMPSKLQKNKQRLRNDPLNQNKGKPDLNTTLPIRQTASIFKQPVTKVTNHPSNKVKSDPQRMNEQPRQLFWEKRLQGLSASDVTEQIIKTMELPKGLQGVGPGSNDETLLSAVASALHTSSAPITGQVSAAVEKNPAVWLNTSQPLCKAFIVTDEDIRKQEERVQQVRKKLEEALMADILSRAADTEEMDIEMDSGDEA
# UniProt Q9NX05: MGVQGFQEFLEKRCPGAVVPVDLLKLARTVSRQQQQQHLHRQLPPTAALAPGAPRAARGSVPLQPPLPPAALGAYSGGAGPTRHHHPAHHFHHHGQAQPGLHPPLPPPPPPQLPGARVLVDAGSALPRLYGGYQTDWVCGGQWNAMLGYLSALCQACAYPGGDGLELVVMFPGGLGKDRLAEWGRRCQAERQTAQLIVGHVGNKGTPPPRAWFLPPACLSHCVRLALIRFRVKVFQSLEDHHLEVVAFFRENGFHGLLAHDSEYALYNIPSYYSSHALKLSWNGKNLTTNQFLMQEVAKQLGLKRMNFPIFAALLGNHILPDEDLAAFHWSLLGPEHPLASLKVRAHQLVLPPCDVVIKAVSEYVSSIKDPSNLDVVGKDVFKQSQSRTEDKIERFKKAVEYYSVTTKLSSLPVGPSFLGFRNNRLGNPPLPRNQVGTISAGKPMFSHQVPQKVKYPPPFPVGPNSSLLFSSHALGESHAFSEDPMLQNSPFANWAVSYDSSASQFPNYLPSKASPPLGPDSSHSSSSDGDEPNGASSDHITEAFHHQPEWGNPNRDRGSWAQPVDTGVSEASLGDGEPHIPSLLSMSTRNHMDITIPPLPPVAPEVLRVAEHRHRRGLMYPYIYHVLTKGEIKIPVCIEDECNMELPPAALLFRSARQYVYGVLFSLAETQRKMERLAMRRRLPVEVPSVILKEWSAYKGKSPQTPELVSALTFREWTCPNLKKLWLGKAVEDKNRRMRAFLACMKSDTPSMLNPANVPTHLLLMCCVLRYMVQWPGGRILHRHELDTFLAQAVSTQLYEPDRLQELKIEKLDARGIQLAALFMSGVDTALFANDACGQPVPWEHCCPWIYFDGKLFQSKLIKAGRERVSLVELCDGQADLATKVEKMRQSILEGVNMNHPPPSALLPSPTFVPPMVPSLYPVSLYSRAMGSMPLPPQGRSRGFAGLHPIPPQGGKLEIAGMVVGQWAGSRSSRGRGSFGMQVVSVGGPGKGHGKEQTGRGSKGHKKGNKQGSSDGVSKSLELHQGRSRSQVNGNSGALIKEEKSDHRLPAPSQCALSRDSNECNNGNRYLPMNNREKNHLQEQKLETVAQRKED
# UniProt Q9ULT8: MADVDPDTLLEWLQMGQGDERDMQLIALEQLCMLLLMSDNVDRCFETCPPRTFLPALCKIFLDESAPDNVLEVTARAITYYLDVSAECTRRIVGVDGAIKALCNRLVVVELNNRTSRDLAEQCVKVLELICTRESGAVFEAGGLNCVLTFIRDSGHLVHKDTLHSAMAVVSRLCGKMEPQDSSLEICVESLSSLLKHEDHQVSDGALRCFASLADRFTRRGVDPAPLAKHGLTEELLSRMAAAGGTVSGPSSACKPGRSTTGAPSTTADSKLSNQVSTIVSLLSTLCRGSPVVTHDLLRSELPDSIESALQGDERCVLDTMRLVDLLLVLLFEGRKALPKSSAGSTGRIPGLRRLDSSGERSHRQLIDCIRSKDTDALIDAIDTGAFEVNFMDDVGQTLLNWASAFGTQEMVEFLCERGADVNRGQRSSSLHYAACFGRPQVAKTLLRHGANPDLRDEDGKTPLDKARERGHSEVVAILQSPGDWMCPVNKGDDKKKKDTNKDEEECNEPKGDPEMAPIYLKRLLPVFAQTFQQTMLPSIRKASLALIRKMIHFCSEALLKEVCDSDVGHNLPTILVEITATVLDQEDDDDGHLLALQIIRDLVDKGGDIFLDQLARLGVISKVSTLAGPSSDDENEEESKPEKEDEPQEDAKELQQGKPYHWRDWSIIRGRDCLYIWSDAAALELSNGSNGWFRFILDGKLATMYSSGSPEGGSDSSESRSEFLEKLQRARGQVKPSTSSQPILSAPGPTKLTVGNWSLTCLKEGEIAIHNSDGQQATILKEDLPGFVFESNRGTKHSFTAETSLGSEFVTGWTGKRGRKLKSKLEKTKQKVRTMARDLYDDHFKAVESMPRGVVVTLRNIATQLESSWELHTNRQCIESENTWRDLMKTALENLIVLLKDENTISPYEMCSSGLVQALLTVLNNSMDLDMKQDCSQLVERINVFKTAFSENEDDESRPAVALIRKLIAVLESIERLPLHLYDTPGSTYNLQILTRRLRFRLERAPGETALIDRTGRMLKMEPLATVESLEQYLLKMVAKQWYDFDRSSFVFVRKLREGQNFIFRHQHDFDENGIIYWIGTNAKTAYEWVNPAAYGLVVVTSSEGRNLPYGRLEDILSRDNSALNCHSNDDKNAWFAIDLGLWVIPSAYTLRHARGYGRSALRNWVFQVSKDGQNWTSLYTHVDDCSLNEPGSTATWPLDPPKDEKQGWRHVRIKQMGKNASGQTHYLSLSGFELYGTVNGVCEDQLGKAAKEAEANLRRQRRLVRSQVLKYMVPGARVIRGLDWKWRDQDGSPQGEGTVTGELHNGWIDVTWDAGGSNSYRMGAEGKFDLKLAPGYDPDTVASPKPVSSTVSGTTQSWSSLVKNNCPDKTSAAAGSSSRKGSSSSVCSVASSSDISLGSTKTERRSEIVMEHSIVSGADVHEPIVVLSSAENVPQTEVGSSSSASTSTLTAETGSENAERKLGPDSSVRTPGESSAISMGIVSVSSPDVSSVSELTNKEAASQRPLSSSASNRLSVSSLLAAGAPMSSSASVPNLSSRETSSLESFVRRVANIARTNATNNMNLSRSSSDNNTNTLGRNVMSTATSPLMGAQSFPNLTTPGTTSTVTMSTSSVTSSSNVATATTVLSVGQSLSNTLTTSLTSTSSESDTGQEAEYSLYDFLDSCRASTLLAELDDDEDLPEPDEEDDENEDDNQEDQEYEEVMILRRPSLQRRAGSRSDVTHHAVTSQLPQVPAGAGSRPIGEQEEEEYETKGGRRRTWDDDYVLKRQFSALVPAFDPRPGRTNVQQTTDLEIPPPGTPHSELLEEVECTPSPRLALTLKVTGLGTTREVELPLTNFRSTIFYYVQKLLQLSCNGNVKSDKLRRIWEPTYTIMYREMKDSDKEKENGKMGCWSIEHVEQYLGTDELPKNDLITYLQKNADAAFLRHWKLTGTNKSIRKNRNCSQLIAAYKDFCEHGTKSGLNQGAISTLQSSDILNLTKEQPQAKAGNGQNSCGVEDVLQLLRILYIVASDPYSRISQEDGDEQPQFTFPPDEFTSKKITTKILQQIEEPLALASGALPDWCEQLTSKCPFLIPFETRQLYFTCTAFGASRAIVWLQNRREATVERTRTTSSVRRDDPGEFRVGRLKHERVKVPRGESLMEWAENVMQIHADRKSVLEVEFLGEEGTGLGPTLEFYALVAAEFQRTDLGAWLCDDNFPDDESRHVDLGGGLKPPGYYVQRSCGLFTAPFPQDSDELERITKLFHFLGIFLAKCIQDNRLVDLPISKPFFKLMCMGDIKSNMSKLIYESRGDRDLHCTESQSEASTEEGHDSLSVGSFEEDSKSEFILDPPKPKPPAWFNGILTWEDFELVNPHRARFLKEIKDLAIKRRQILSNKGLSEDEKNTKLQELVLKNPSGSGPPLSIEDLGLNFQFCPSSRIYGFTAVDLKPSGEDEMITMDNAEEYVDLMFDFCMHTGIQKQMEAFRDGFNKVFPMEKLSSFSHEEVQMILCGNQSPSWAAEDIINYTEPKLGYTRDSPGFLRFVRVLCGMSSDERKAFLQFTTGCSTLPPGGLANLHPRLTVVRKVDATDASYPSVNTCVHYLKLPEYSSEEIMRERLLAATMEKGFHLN
# UniProt Q9UIC8: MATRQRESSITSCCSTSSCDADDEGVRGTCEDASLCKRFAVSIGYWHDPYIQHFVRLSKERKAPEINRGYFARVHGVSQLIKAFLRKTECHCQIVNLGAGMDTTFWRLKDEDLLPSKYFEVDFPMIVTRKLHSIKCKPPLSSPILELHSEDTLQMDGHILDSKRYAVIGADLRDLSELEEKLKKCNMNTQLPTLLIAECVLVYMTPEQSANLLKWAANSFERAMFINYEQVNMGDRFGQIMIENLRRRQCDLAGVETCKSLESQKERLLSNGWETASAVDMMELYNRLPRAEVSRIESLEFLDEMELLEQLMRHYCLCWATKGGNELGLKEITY
# UniProt Q9ULM3: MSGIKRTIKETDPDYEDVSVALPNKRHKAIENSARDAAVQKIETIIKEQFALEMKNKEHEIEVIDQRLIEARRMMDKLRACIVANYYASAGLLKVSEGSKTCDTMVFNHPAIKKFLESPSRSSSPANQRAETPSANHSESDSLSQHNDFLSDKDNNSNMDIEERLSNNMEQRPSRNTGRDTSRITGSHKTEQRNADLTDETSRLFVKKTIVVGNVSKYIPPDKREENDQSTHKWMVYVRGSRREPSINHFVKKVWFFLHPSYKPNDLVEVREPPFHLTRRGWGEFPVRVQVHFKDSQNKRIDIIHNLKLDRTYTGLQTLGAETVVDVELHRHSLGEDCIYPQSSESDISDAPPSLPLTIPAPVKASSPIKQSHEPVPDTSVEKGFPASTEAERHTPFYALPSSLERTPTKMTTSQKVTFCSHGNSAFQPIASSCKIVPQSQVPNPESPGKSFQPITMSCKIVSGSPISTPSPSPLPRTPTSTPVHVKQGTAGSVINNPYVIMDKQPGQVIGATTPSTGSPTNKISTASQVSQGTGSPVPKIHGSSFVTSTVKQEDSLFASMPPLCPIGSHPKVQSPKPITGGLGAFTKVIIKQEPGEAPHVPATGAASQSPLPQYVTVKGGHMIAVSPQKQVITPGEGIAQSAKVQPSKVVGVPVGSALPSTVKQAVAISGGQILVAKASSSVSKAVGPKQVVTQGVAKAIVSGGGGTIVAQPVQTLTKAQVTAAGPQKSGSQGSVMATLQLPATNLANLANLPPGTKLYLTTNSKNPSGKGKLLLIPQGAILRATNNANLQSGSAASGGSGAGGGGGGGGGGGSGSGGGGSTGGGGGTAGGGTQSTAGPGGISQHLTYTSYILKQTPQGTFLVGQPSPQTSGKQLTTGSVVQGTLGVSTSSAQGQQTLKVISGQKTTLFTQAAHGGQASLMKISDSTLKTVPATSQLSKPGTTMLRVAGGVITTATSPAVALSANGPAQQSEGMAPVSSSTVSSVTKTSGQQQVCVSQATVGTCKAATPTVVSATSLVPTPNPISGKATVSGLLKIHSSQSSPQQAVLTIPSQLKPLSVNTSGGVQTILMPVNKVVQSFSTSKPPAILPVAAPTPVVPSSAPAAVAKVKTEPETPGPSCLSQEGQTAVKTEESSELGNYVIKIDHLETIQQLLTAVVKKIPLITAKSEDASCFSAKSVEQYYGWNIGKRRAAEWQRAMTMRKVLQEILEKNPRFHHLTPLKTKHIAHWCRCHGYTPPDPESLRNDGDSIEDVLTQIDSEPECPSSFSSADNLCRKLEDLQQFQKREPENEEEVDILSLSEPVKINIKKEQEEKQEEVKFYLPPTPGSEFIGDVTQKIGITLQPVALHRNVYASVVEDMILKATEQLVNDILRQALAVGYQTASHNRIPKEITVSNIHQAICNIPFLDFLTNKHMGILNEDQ
# ± gives the standard deviation of the averaged measurements. The list shows a part of the results.
# Compound: Nc1nc2c(ncn2[C@@H]2O[C@H](COP(=O)(O)OP(=O)(O)OP(=O)(O)O)[C@@H](O)[C@H]2O)c(=O)[nH]1 [guanosine triphosphate]
# Assay: NP40-soluble protein abundance relative to vehicle (solubility fold change) (ratio); higher = more soluble protein in presence of GTP
# How it was run: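 Eight concentrations, 0.1 to 10 mM, were tested on Jurkat crude lysate for 10 min at room temperature and then 3 min at 37 °C, in three independent experiments. The lysate was solubilised with 0.8% NP40 and benzonase, ultracentrifuged, and the supernatant TMT-labelled for LC-MS/MS. Each value is the fold change against the detergent-processed vehicle in its own replicate, from vsn-normalised intensities.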
Target,NP40-soluble protein abundance (concentration: 0.1mM),NP40-soluble protein abundance (concentration: 0.5mM),NP40-soluble protein abundance (concentration: 1mM),NP40-soluble protein abundance (concentration: 2mM),NP40-soluble protein abundance (concentration: 4mM),NP40-soluble protein abundance (concentration: 6mM),NP40-soluble protein abundance (concentration: 8mM),NP40-soluble protein abundance (concentration: 10mM)
UniProt Q9UHA4 and related entries,0.856 ± 0.094,0.878 ± 0.2,0.941 ± 0.07,0.856 ± 0.093,0.869 ± 0.093,0.865 ± 0.065,0.89 ± 0.13,0.842 ± 0.098
UniProt Q9UGR2 and related entries,1.08 ± 0.091,1.1 ± 0.047,1.12 ± 0.05,1.08 ± 0.023,1.13 ± 0.032,1.08 ± 0.085,1.15 ± 0.045,1.1 ± 0.018
ABCF3 (UniProt Q9NUQ8),1.06 ± 0.08,1.05 ± 0.07,0.971 ± 0.033,0.966 ± 0.025,0.957 ± 0.036,0.934 ± 0.035,0.936 ± 0.051,0.919 ± 0.043
UniProt Q9NXR5 and related entries,1.1 ± 0.12,0.986 ± 0.052,1.13 ± 0.074,1.02 ± 0.034,0.985 ± 0.072,1.01 ± 0.042,0.998 ± 0.16,0.988 ± 0.09
AGPAT5 (UniProt Q9NUQ2),0.994 ± 0.049,0.963 ± 0.029,0.927 ± 0.069,0.967 ± 0.033,0.934 ± 0.041,0.914 ± 0.12,0.871 ± 0.02,0.903 ± 0.032
CCDC59 (UniProt Q9P031),1.06 ± 0.1,0.924 ± 0.012,1.07 ± 0.035,1.08 ± 0.016,1.08 ± 0.037,0.986 ± 0.048,1.02 ± 0.056,1.06 ± 0.052
TRNAU1AP (UniProt Q9NX07),0.976 ± 0.035,0.959 ± 0.022,0.926 ± 0.024,0.928 ± 0.026,0.928 ± 0.025,0.898 ± 0.024,0.937 ± 0.038,0.911 ± 0.027
UniProt Q9UBI1 and related entries,0.963 ± 0.05,0.965 ± 0.053,1.02 ± 0.023,0.987 ± 0.064,0.978 ± 0.082,1.01 ± 0.052,0.974 ± 0.061,0.981 ± 0.086
APPL1 (UniProt Q9UKG1),1 ± 0.031,1.01 ± 0.035,0.955 ± 0.019,0.963 ± 0.0096,0.959 ± 0.025,0.929 ± 0.02,0.95 ± 0.022,0.899 ± 0.046
UniProt Q9NWU1 and related entries,0.981 ± 0.12,1.06 ± 0.049,0.982 ± 0.059,0.96 ± 0.1,0.924 ± 0.14,0.985 ± 0.09,0.942 ± 0.038,0.907 ± 0.058
ACTR10 (UniProt Q9NZ32),1.03 ± 0.023,1.07 ± 0.044,1.07 ± 0.028,1.1 ± 0.062,1.1 ± 0.076,1.12 ± 0.077,1.12 ± 0.12,1.08 ± 0.075
WARS2 (UniProt Q9UGM6),1.02 ± 0.056,0.974 ± 0.039,1.06 ± 0.041,1.01 ± 0.018,1.01 ± 0.031,0.979 ± 0.038,1.05 ± 0.03,0.992 ± 0.021
UniProt Q9UK53-2|A0A0C4DFW2|Q9UK53 and related entries,0.938 ± 0.13,1.04 ± 0.18,1.03 ± 0.12,1.11 ± 0.16,1.08 ± 0.24,1.18 ± 0.13,1.11 ± 0.28,1.16 ± 0.097
PPM1H (UniProt Q9ULR3),0.95 ± 0.051,1.05 ± 0.049,0.953 ± 0.026,0.9662 ± 0.0058,0.877 ± 0.029,0.953 ± 0.029,0.86 ± 0.041,0.922 ± 0.023
FASTKD2 (UniProt Q9NYY8),1.01 ± 0.023,1.05 ± 0.02,0.974 ± 0.022,0.959 ± 0.054,0.946 ± 0.063,0.941 ± 0.017,0.929 ± 0.022,0.916 ± 0.065
UniProt Q9UL54-2|Q9UL54 and related entries,1.02 ± 0.16,1.12 ± 0.15,1.07 ± 0.073,1.13 ± 0.094,1.12 ± 0.073,1.08 ± 0.16,1.19 ± 0.14,1.16 ± 0.11
MBD2 (UniProt Q9UBB5),0.97 ± 0.01,0.963 ± 0.039,1.15 ± 0.1,1.23 ± 0.12,1.27 ± 0.14,1.28 ± 0.14,1.34 ± 0.15,1.41 ± 0.22
DDX20 (UniProt Q9UHI6),1.06 ± 0.06,1.1 ± 0.083,1.13 ± 0.16,1.22 ± 0.18,1.3 ± 0.21,1.26 ± 0.2,1.26 ± 0.2,1.26 ± 0.24
FAM120C (UniProt Q9NX05),1 ± 0.021,1.04 ± 0.017,1.04 ± 0.036,1.09 ± 0.065,1.12 ± 0.068,1.18 ± 0.077,1.25 ± 0.08,1.25 ± 0.061
UniProt Q9NZB2 and related entries,1.02 ± 0.028,1.07 ± 0.042,1.11 ± 0.12,1.16 ± 0.14,1.18 ± 0.16,1.2 ± 0.15,1.25 ± 0.18,1.24 ± 0.17
UniProt Q9NZB8 and related entries,1.02 ± 0.035,0.955 ± 0.062,0.933 ± 0.0079,0.946 ± 0.067,0.894 ± 0.027,0.915 ± 0.056,0.872 ± 0.017,0.847 ± 0.067
UniProt Q9ULP9 and related entries,1.08 ± 0.031,1.04 ± 0.068,1.02 ± 0.021,1.03 ± 0.063,1.01 ± 0.096,0.953 ± 0.078,0.985 ± 0.099,0.974 ± 0.042
ADD3 (UniProt Q9UEY8),1.01 ± 0.022,1.04 ± 0.031,1.014 ± 0.0023,1.03 ± 0.021,1.01 ± 0.024,1.01 ± 0.012,1.02 ± 0.012,1.01 ± 0.012
UniProt Q9NUP1,0.936 ± 0.15,0.888 ± 0.075,0.985 ± 0.21,0.979 ± 0.18,0.959 ± 0.14,0.939 ± 0.13,0.998 ± 0.016,1.06 ± 0.11
HECTD1 (UniProt Q9ULT8),1.04 ± 0.011,1.03 ± 0.024,1.02 ± 0.031,1.02 ± 0.042,1.02 ± 0.019,0.994 ± 0.027,0.987 ± 0.04,0.985 ± 0.031
UniProt Q9UIC8 and related entries,0.978 ± 0.059,1.01 ± 0.049,0.88 ± 0.064,0.891 ± 0.058,0.875 ± 0.084,0.885 ± 0.064,0.818 ± 0.067,0.856 ± 0.11
UniProt Q9NZD8 and related entries,1.03 ± 0.047,1 ± 0.028,0.944 ± 0.089,0.937 ± 0.04,0.883 ± 0.059,0.891 ± 0.072,0.916 ± 0.07,0.88 ± 0.057
UniProt Q9NZJ7 and related entries,1.01 ± 0.087,0.963 ± 0.11,0.976 ± 0.078,0.984 ± 0.13,0.938 ± 0.07,0.969 ± 0.084,1.03 ± 0.12,0.938 ± 0.051
YEATS2 (UniProt Q9ULM3),1.05 ± 0.057,1.13 ± 0.1,1.13 ± 0.2,1.17 ± 0.29,1.12 ± 0.2,1.14 ± 0.2,1.11 ± 0.17,1.18 ± 0.23
LRWD1 (UniProt Q9UFC0),1.05 ± 0.011,1.04 ± 0.012,1.01 ± 0.017,1.03 ± 0.027,1.062 ± 0.0054,1 ± 0.012,1.04 ± 0.022,1.02 ± 0.015

# An excerpt from above, reduced to NP40-soluble protein abundance (concentration: 1mM), NP40-soluble protein abundance (concentration: 0.5mM) and NP40-soluble protein abundance (concentration: 4mM):
Target,NP40-soluble protein abundance (concentration: 1mM),NP40-soluble protein abundance (concentration: 0.5mM),NP40-soluble protein abundance (concentration: 4mM)
UniProt Q9NZD8 and related entries,0.944 ± 0.089,1 ± 0.028,0.883 ± 0.059
UniProt Q9NZJ7 and related entries,0.976 ± 0.078,0.963 ± 0.11,0.938 ± 0.07
